2 molecules from article PMC4587749 can be followed below.

The target of assay [1] is T1, PfAlba2 (Plasmodium falciparum) (UniProt Q8IDN4).
T1 sequence: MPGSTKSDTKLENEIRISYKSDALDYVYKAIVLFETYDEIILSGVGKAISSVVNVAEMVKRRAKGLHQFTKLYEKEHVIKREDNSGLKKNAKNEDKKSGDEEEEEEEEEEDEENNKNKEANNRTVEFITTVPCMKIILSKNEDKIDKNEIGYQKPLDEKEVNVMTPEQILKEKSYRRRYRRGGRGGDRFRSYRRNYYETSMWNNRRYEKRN
As to the kind of experiment: co-IP; data not shown; during the IDC; bait and antibodies not stated.

The target of assay [2] is T2, endogenous PfAlba1 (Plasmodium falciparum (endogenous in 3D7 parasites)) (UniProt Q8IAX8).
T2 sequence: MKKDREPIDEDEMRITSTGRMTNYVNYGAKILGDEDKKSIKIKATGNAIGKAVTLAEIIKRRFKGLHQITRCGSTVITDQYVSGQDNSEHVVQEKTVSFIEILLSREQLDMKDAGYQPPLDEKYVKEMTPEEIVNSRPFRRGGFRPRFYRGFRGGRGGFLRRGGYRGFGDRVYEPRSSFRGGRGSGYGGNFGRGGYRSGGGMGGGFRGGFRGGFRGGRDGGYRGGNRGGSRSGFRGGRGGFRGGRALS
The assay is described as above.

The target of assay [3] is T3, PfAlba1-Ty1 (Plasmodium falciparum) (UniProt Q8IAX8).
T3 sequence: T2 sequence
The assay can be described thus: co-IP; PfAlba1-Ty1 immunoprecipitated with rabbit anti-Ty1 antibodies from non-denaturing lysates of 3D7+PfAlba1-Ty1 trophozoites (28-30 h; also schizonts, 42-45 h) grown at 5 ug/ml blasticidin-S, with RNAsin; western blot with anti-PfAlba1 antibodies. (Immunoblotting shows a protein as a band on a membrane.)

Results are given in words; binding and its absence hold for the method and conditions named. In cells and extracts the contact can be indirect. Some results given as binding are weak or reduced against the parent protein; the word gives no strength.

B1: PfAlba4 (protein, UniProt A0A5K1K8Y8 1-372)
chain: MENDKKHNQKQNNVDENEFPNSKVLLVSVKRTRRFLERTARELLAGGTRYIILSGLGDALPLCVQLQSSLQSKNAANVVKIETSYSYFNSNYSYTPGLKIYMEKHPEFKGSRISPGYVSFHEKTDSFTPIYDENPNEYICSLNAGDNNLYVGGEGINGAFSELLSSHNQEVDKYESLFKELLTKAVNENGEKPDEEVKSVLYDNVDKKYPDVKLALCRIRNSLKKGSDHSTGSVFIVTFKKNFPHKKEKNMGMVYVVGPKGKNYNSVEEFLDEVQETAENLMTTLCDYNGLVKREEIKHVRMNTCRICLFSGSIFKHPNASKLDVAKAILNGLAVGYRHGPSPRLNFAYDENVFKDAWVETTGLQVFNHNEQ
Turning to B1, the binding entry in assay [1] and in assay [2] was “binds” in each case.

B2: endogenous PfAlba1 (protein, UniProt Q8IAX8 1-248)
chain: T2 sequence
Turning to B2, the binding entry in assay [3] is “binds”.
